# Measured values reported in PMC12285236, “Xylanolytic metabolism is regulated by coordination of transcription factors XynR and XylR in extremely thermophilic Caldicellulosiruptorales”.
# For some of these results: Negatives hold for the conditions tested. For some of these results: Tags and fusion partners may be left off the protein sequences shown. For some of these results: The exact form of at least one protein or probe is not confirmed. For some of these results: A weaker result is weaker than the reference pair of the same experiment.
# Key:
# [1] = biological target: XynR (Anaerocellum (f. Caldicellulosiruptor) bescii) (UniProt B9MPD1); experiment: BLI; settings: BLI: 100 nM DNA immobilized on streptavidin sensors, recombinant protein, protein details: C-terminal 6xHis, label: 5' biotin on strand 1
# [2] = biological target: T1, XylR (Anaerocellum (f. Caldicellulosiruptor) bescii) (UniProt Q44406); experiment: fluorescence polarization; settings: FP called inconclusive, binding seen by BLI; FP: 5 nM probe, 30 nM-3 uM protein, 22 C; recombinant protein; residues 1-399; protein details: C-terminal 6xHis; label: 5' 6-FAM on strand 1
# T1 sequence (looked up): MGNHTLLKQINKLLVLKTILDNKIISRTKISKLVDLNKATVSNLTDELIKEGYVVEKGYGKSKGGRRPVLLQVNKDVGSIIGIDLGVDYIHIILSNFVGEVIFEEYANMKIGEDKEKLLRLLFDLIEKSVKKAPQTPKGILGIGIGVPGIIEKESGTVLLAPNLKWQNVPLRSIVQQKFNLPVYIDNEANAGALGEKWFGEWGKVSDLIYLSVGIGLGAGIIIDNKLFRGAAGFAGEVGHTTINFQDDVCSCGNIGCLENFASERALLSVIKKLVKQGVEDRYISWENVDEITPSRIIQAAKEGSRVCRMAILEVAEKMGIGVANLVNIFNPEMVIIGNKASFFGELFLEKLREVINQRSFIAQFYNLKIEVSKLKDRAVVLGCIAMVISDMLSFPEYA
Sequence,binding result ([1]; weaker interaction),further results
ATATTTTTTTATTTTCATGAAATCGCTTTCCTATCTAAAATATTAA (double strand) [xynMNC BLI probe],,"binding result ([1]; stronger association, slower dissociation): binds"
CAAAAAATATTGACTAGTAAACGCTTACGATATATTATATAAAC (double strand) [XDL BLI probe],binds more weakly,
ATTATAGATATTAGTTTGTTTAATAAACAAACTAAGTACACGTACT (double strand) [xylA FP probe],,binding result [2]: no binding
CTTTGTGCTGAGGTTAGAAAGCGGTTTCAAGCAATTTAAAACAA (double strand) [xyl3A BLI probe],binds more weakly,
